From patent US7935724B2, “Thiophene and benzothiophene hydroxamic acid derivatives” (Merck HDAC Research, LLC, priority 2003, dated 2011)

Chains of the proteins cited; added tags and fusions are not shown.
UniProt Q13547, whole entry: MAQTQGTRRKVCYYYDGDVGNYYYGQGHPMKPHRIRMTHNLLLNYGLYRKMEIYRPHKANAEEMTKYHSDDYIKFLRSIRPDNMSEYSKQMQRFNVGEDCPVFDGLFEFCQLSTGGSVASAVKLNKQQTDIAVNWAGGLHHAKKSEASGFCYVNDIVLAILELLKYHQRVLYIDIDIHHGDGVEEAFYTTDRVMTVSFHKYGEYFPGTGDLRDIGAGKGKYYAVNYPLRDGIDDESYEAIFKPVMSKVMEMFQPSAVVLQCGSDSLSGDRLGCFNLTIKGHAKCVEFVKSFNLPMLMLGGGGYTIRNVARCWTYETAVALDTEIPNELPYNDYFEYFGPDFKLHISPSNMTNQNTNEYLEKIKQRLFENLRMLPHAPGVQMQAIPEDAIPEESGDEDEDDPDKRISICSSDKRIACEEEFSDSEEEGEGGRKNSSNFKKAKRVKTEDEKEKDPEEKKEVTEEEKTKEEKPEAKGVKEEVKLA

Molecular target: histone deacetylase, subtype 1 (HDAC1) (Homo sapiens, UniProt Q13547)
Assay: HDAC1-Flag assay (in vitro deacetylation assay)
Settings: read-out: HDAC Inhibition; Table 2, thiophene backbone; concentration for 50% inhibition of deacetylation; substrate at Km; unit inferred, text gives nm

O=C(/C=C/c1ccc(C(=O)NO)s1)Nc1cccc(OCc2ccccc2)c1
pIC50: 6.10

pIC50: −log10 of the molar value. The structures given here were assigned with low confidence; some may be wrong.
